From PMC9978635

Chains of the proteins cited; added tags and fusions are not shown. Lines headed by an entry give the natural chain unless they say otherwise; changes in a name come on top. A line that says so, or that is headed by a name, gives the form on record, which may keep a tag or linker. Residues count along the entry.
0N4R tau[WT]-BioID2 (P10636, form named): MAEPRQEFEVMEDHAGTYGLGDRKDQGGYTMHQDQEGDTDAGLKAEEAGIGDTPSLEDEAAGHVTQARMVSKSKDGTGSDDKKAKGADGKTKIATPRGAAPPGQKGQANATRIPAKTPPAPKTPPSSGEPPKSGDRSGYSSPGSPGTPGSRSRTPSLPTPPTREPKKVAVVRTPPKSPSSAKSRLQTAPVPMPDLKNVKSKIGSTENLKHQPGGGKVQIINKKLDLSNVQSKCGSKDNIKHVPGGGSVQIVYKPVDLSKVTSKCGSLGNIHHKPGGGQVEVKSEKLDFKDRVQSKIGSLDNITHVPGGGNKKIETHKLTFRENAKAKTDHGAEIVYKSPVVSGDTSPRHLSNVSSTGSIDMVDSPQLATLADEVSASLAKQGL
UniProt P11137: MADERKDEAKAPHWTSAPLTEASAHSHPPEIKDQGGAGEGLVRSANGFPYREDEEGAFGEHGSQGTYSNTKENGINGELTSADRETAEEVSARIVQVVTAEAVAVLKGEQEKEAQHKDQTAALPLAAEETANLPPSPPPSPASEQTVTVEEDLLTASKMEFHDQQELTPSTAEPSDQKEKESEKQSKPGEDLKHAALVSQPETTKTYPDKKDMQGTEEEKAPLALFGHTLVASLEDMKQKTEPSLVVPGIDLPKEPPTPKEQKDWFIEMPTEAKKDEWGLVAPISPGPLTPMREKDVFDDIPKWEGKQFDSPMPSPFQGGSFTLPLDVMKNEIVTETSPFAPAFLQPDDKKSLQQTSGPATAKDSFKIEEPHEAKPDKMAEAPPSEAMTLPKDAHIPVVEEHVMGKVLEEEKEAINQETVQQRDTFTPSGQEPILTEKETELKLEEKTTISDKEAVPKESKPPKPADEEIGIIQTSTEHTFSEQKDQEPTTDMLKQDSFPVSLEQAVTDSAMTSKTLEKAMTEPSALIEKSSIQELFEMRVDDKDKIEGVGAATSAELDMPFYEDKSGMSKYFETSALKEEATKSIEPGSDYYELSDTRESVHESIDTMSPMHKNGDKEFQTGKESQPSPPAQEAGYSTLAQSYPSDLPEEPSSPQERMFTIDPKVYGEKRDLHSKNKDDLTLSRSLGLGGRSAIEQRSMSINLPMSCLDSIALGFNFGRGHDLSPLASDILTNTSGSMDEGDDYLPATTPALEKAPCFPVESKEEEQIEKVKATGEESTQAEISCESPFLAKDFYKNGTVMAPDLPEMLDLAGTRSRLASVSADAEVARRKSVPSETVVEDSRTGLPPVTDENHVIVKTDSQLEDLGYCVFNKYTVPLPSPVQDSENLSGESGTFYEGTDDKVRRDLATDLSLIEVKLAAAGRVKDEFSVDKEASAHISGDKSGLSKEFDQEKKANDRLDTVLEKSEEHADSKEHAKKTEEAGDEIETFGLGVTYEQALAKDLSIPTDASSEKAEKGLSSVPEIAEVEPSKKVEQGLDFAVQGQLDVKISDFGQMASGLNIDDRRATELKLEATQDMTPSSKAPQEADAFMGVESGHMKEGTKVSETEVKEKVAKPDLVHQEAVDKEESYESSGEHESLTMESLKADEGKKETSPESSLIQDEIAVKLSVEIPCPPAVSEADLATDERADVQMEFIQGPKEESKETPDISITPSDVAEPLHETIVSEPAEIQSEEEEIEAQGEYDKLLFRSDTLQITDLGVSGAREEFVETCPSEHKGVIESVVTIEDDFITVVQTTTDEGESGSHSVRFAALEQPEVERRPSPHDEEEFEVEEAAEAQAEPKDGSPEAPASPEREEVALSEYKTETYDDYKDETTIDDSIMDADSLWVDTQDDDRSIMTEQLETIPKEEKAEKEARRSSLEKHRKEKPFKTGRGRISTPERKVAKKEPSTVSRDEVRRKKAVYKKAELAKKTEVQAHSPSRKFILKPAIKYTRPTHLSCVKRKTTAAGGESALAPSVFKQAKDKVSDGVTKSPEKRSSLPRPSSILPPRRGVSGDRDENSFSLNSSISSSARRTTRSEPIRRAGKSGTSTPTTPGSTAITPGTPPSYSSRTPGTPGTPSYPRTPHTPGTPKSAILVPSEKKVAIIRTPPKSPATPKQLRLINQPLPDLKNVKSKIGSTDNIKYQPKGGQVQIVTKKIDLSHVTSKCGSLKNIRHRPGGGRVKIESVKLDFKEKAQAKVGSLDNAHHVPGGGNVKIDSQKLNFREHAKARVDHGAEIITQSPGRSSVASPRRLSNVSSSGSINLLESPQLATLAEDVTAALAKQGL
UniProt Q99497: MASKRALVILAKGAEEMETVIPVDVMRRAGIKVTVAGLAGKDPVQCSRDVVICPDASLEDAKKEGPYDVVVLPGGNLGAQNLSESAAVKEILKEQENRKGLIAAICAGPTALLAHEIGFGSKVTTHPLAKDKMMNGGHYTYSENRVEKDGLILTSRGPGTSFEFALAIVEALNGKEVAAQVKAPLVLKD
UniProt O00217, residues 35-210: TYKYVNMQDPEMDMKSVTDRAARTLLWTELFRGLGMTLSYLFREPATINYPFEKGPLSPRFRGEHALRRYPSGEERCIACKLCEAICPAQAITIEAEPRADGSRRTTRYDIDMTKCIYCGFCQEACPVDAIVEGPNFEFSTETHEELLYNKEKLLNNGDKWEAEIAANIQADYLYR

Tests used:
Assay in all cases: proximity labelling; BioID2 fused to the C terminus of the bait in hESC-derived NGN2 neurons; K18[P301L] fibrils, α-synuclein PFFs (50 μg/dish) or PBS; 50 μM biotin for 24 h, added with the fibrils or 3 weeks later; lysis in 8 M urea, streptavidin magnetic beads, on-bead trypsin, TMT10plex LC-MS; interactor: ≥1.5-fold more abundant than in both BioID2-only controls
0N4R tau[WT]-BioID2 [1] = biological target: 0N4R tau[WT]-BioID2 (UniProt P10636)
0N4R tau[WT]-BioID2 [2] = biological target: 0N4R tau[WT]-BioID2 (UniProt P10636); remark: listed apart in the source
0N4R tau[P301L]-BioID2 = biological target: 0N4R tau[P301L]-BioID2

Molecule | binding (0N4R tau[WT]-BioID2 [1]) | binding (0N4R tau[WT]-BioID2 [2]) | binding (0N4R tau[P301L]-BioID2)
microtubule-associated protein 2 (from UniProt P11137 1-1827) | binds | – | –
14-3-3θ (protein, UniProt P27348 1-245) MEKTELIQKAKLAEQAERYDDMATCMKAVTEQGAELSNEERNLLSVAYKNVVGGRRSAWRVISSIEQKTDTSDKKLQLIKDYREKVESELRSICTTVLELLDKYLIANATNPESKVFYLKMKGDYFRYLAEVACGDDRKQTIDNSQGAYQEAFDISKKEMQPTHPIRLGLALNFSVFYYEILNNPELACTLAKTAFDEAIAELDTLNEDSYKDSTLIMQLLRDNLTLWTSDSAGEECDAAEGAEN | – | no binding | binds

The remaining lines, values ahead:

binding (0N4R tau[WT]-BioID2 [1]) | binding (0N4R tau[WT]-BioID2 [2]) | binding (0N4R tau[P301L]-BioID2) | Molecule
no binding | – | – | DJ-1 (Parkinsonism-associated deglycase) (from UniProt Q99497 1-189)
binds | – | – | NADH:ubiquinone oxidoreductase core subunit S8 (from UniProt O00217 35-210)

Where two headings read alike, the source gives them in different places. These are yes or no findings as the source states them, for the method shown. Binding seen in cells or lysates may run through a third protein. A yes stands for co-enrichment or nearness to the bait. Other partners may have been found. For some assays here: No binding means not detected with the bait.
